# Data taken from the supplement of paper PMC4604168 (melanoma cell lines).
# The list shows a part of the results. Single values are uncertain, as repeats are few or missing.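 Cells were imaged in 1,536-well plates, and nuclei stained with an antibody against cleaved PARP were counted against all DNA-stained nuclei to give the apoptosis fraction. Screening doses were chosen to leave most cells alive, and resting and induced cleaved-PARP levels differ strongly between cell lines.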
# Assays:
# Assay in all cases: cleaved PARP positive nuclei fraction relative to DMSO control; melanoma cells; higher = more apoptosis
# Details in all cases: library dose: low library concentration; 72 h
# 501Mel = system: 501Mel
# A101D = system: A101D
# A2058 = system: A2058
# A375 = system: A375
# C32 = system: C32
# CBRC008 = system: CBRC008 (line from a melanoma biopsy)
# CBRC014 = system: CBRC014 (line from a melanoma biopsy)
# CBRC016 = system: CBRC016 (line from a melanoma biopsy)
# CBRC017 = system: CBRC017 (line from a melanoma biopsy)
SMILES,cleaved PARP positive nuclei fraction (501Mel) [%],cleaved PARP positive nuclei fraction (A101D) [%],cleaved PARP positive nuclei fraction (A2058) [%],cleaved PARP positive nuclei fraction (A375) [%],cleaved PARP positive nuclei fraction (C32) [%],cleaved PARP positive nuclei fraction (CBRC008) [%],cleaved PARP positive nuclei fraction (CBRC014) [%],cleaved PARP positive nuclei fraction (CBRC016) [%],cleaved PARP positive nuclei fraction (CBRC017) [%]
"Cn1cc(C2=C(c3cn(C4CCN(Cc5ccccn5)CC4)c4ccccc34)C(=O)NC2=O)c2ccccc21 [Enzastaurin] + CS(=O)(=O)c1ccc(C(=O)Nc2ccc(Cl)c(-c3ccccn3)c2)c(Cl)c1 [vismodegib] (first compound 0.8 µM, partner dose 1 µM)",76.1,214,88.7,39.7,72.6,180,103,68.2,101
"Cn1cc(C2=C(c3cn(C4CCN(Cc5ccccn5)CC4)c4ccccc34)C(=O)NC2=O)c2ccccc21 [Enzastaurin] + CN1CCN(c2ccc3nc(-c4c(N)c5c(F)cccc5[nH]c4=O)[nH]c3c2)CC1 [Dovitinib] (first compound 0.8 µM, partner dose 0.1 µM)",53.6,51.5,164,156,73.5,189,95.5,35.2,114
"O=C(Nc1cc(C(F)(F)F)cc(C(F)(F)F)c1)c1cc(Cl)ccc1O + C[C@]12O[C@H](C[C@]1(O)CO)n1c3ccccc3c3c4c(c5c6ccccc6n2c5c31)CNC4=O [Lestaurtinib] (first compound 0.016 µM, partner dose 0.004 µM)",71.7,96,112,126,82.7,158,89.7,135,71
"C[C@]12O[C@H](C[C@]1(O)CO)n1c3ccccc3c3c4c(c5c6ccccc6n2c5c31)CNC4=O [Lestaurtinib] + Nc1nc(F)nc2c1ncn2[C@@H]1O[C@H](CO)[C@@H](O)[C@@H]1O [fludarabine] (first compound 0.004 µM, partner dose 0.2 µM)",10100,51.7,88,2790,133,45,96,157,99.5
"C[C@]12O[C@H](C[C@]1(O)CO)n1c3ccccc3c3c4c(c5c6ccccc6n2c5c31)CNC4=O [Lestaurtinib] + C=CCNC1=C2C[C@@H](C)C[C@H](OC)[C@H](O)[C@@H](C)/C=C(\C)[C@H](OC(N)=O)[C@@H](OC)/C=C\C=C(/C)C(=O)NC(=CC1=O)C2=O [Tanespimycin] (first compound 0.004 µM, partner dose 0.002 µM)",119,104,211,104,159,154,78.3,155,102
"C[C@]12O[C@H](C[C@]1(O)CO)n1c3ccccc3c3c4c(c5c6ccccc6n2c5c31)CNC4=O [Lestaurtinib] + CN(c1ncccc1CNc1nc(Nc2ccc3c(c2)CC(=O)N3)ncc1C(F)(F)F)S(C)(=O)=O [PF562271] (first compound 0.004 µM, partner dose 0.08 µM)",92.7,46.1,153,75.1,107,71.6,94.1,96.7,103
"C[C@@H](N)c1ccc(C(=O)Nc2ccnc3[nH]ccc23)cc1 + Cn1cc(C2=C(c3cn(C4CCN(Cc5ccccn5)CC4)c4ccccc34)C(=O)NC2=O)c2ccccc21 [Enzastaurin] (first compound 0.4 µM, partner dose 0.8 µM)",47.5,105,131,165,46.4,49.3,116,120,86.2
"N#CC[C@H](C1CCCC1)n1cc(-c2ncnc3[nH]ccc23)cn1 [ruxolitinib] + C[C@]12O[C@H](C[C@]1(O)CO)n1c3ccccc3c3c4c(c5c6ccccc6n2c5c31)CNC4=O [Lestaurtinib] (first compound 1 µM, partner dose 0.004 µM)",868,43.8,115,91.2,38.3,80.4,105,198,95.5
"C[C@]12O[C@H](C[C@]1(O)CO)n1c3ccccc3c3c4c(c5c6ccccc6n2c5c31)CNC4=O [Lestaurtinib] + C=C(c1ccc(C(=O)O)cc1)c1cc2c(cc1C)C(C)(C)CCC2(C)C [Bexarotene] (first compound 0.004 µM, partner dose 2 µM)",231,51,143,107,70.9,118,91.9,151,151
"C[C@]12O[C@H](C[C@]1(O)CO)n1c3ccccc3c3c4c(c5c6ccccc6n2c5c31)CNC4=O [Lestaurtinib] + CO[C@H]1C[C@@H]2CC[C@@H](C)[C@@](O)(O2)C(=O)C(=O)N2CCCC[C@H]2C(=O)O[C@H]([C@H](C)C[C@@H]2CC[C@@H](OCCO)[C@H](OC)C2)CC(=O)[C@H](C)/C=C(\C)[C@@H](O)[C@@H](OC)C(=O)[C@H](C)C[C@H](C)/C=C/C=C/C=C/1C [everolimus] (first compound 0.004 µM, partner dose 0.02 µM)",394,30.6,217,939,87.6,137,90,59.9,111
"N.N.[Cl][Pt][Cl] [cisplatin] + Clc1ccc(Nc2nnc(Cc3ccncc3)c3ccccc23)cc1 [vatalanib] (first compound 1.6 µM, partner dose 2 µM)",103,99.3,120,1050,67.8,380,238,291,108
"C[As](C)SC[C@H](NC(=O)CC[C@H](N)C(=O)O)C(=O)NCC(=O)O [Darinaparsin] + Nc1cccc2c1CN(C1CCC(=O)NC1=O)C2=O [lenalidomide] (first compound 0.4 µM, partner dose 1 µM)",87.2,40.7,124,24.2,73.9,102,94.7,81.7,90
"OCc1c[nH]c2ccccc12 [Indole-3-carbinol] + C[As](C)SC[C@H](NC(=O)CC[C@H](N)C(=O)O)C(=O)NCC(=O)O [Darinaparsin] (first compound 0.8 µM, partner dose 0.4 µM)",57.2,51.5,184,92.4,79.9,64.6,101,94.6,112
"Cn1cc(C2=C(c3cn(C4CCN(Cc5ccccn5)CC4)c4ccccc34)C(=O)NC2=O)c2ccccc21 [Enzastaurin] + C#Cc1cccc(Nc2ncnc3cc(OCCOC)c(OCCOC)cc23)c1 [erlotinib] (first compound 0.8 µM, partner dose 0.8 µM)",28.4,141,98.5,167,83.8,55.9,106,54.5,115
"CC[C@]1(O)C[C@H]2CN(CCc3c([nH]c4ccccc34)[C@@](C(=O)OC)(c3cc4c(cc3OC)N(C=O)[C@H]3[C@@](O)(C(=O)OC)[C@H](OC(C)=O)[C@]5(CC)C=CCN6CC[C@]43[C@@H]65)C2)C1 [vincristine] + Cn1cc(C2=C(c3cn(C4CCN(Cc5ccccn5)CC4)c4ccccc34)C(=O)NC2=O)c2ccccc21 [Enzastaurin] (first compound 0.0001 µM, partner dose 0.8 µM)",84.5,149,153,97.3,179,102,170,152,96.1
"Cn1cc(C2=C(c3cn(C4CCN(Cc5ccccn5)CC4)c4ccccc34)C(=O)NC2=O)c2ccccc21 [Enzastaurin] + Cc1cc(Nc2cc(N3CCN(C)CC3)nc(/C=C/c3ccccc3)n2)n[nH]1 [ENMD2076] (first compound 0.8 µM, partner dose 0.04 µM)",74.4,147,137,238,71,207,91.6,101,86.8
"Cn1sc(=O)n(Cc2ccccc2)c1=O + C[C@]12O[C@H](C[C@]1(O)CO)n1c3ccccc3c3c4c(c5c6ccccc6n2c5c31)CNC4=O [Lestaurtinib] (first compound 0.4 µM, partner dose 0.004 µM)",75.4,43.3,73,80.6,67.9,35.2,102,86.6,102

# No new results follow: an excerpt of the list.
SMILES,cleaved PARP positive nuclei fraction (501Mel) [%],cleaved PARP positive nuclei fraction (A101D) [%],cleaved PARP positive nuclei fraction (A2058) [%],cleaved PARP positive nuclei fraction (A375) [%],cleaved PARP positive nuclei fraction (C32) [%],cleaved PARP positive nuclei fraction (CBRC008) [%],cleaved PARP positive nuclei fraction (CBRC014) [%],cleaved PARP positive nuclei fraction (CBRC016) [%],cleaved PARP positive nuclei fraction (CBRC017) [%]
"Cn1cc(C2=C(c3cn(C4CCN(Cc5ccccn5)CC4)c4ccccc34)C(=O)NC2=O)c2ccccc21 [Enzastaurin] + CS(=O)(=O)c1ccc(C(=O)Nc2ccc(Cl)c(-c3ccccn3)c2)c(Cl)c1 [vismodegib] (first compound 0.8 µM, partner dose 1 µM)",76.1,214,88.7,39.7,72.6,180,103,68.2,101
"Cn1cc(C2=C(c3cn(C4CCN(Cc5ccccn5)CC4)c4ccccc34)C(=O)NC2=O)c2ccccc21 [Enzastaurin] + CN1CCN(c2ccc3nc(-c4c(N)c5c(F)cccc5[nH]c4=O)[nH]c3c2)CC1 [Dovitinib] (first compound 0.8 µM, partner dose 0.1 µM)",53.6,51.5,164,156,73.5,189,95.5,35.2,114
